In the supplement of paper PMC11438910:
The other results are listed elsewhere or left out. Only a few entries rise above the background.

Legend:
Experiment in all cases: fluorescence intensity of antibody binding to polysaccharide-coupled beads; higher = stronger binding
[1] = target: pneumococcal polysaccharide Pn7A
[2] = target: pneumococcal polysaccharide Pn7B
[3] = target: pneumococcal polysaccharide Pn7C
[4] = target: pneumococcal polysaccharide Pn7F
[5] = target: pneumococcal polysaccharide Pn8
[6] = target: pneumococcal polysaccharide Pn9A
[7] = target: pneumococcal polysaccharide Pn9L
[8] = target: pneumococcal polysaccharide Pn9N
[9] = target: pneumococcal polysaccharide Pn9V
[10] = antibody concentration 2.8593 ng/mL
[11] = antibody concentration 15.2894 ng/mL
[12] = antibody concentration 81.7561 ng/mL
[13] = antibody concentration 437.17 ng/mL
[14] = antibody concentration 2337.65 ng/mL
[15] = antibody concentration 12500 ng/mL
[16] = antibody concentration 0.1 ng/mL
[17] = antibody concentration 0.534724 ng/mL

B1: 4-173.4 (protein)
chain 1: QLQLQESGPGLVKPSETLSLTCAVSGGSISSHYWSWIRQPPGKGLEWIGRFSAGGGSTDYNPSLKSRVTISTDTSKNQFTLNLNSVTAADTAVYYCTRGSYTSDYWGQGVLVTVSS
chain 2: QAALTQSPSVSGSPGQSVTISCTGTSSDIGGYIRVSWYQQHPGKAPKLMIYEVSKRPSGVSDRFSGSKSGNTASLTISGLQAEDEADYYCFSYARGDTVLLGGGTRLTVL
B1 was tested, and the fluorescence intensity [1, 10] was 19.2 MFI, the fluorescence intensity [1, 11] was 21 MFI and the fluorescence intensity [1, 12] was 18 MFI. The fluorescence intensity [1, 13] was 21.2 MFI, the fluorescence intensity [1, 14] was 26.5 MFI and the fluorescence intensity [1, 15] was 102 MFI. For the same binder, the fluorescence intensity [2, 16] was 16 MFI, the fluorescence intensity [2, 17] was 16.5 MFI and the fluorescence intensity [2, 10] was 15.5 MFI. The fluorescence intensity [2, 11] was 16.5 MFI, the fluorescence intensity [2, 12] was 14.5 MFI and the fluorescence intensity [2, 13] was 16.8 MFI. The fluorescence intensity [2, 14] was 17.2 MFI, the fluorescence intensity [2, 15] was 30.8 MFI and the fluorescence intensity [3, 16] was 15 MFI. For the same binder, the fluorescence intensity [3, 17] was 16.5 MFI, the fluorescence intensity [3, 10] was 15.8 MFI and the fluorescence intensity [3, 11] was 16 MFI. The fluorescence intensity [3, 12] was 17 MFI, the fluorescence intensity [3, 13] was 17.8 MFI and the fluorescence intensity [3, 14] was 17.5 MFI. It also gave a fluorescence intensity [3, 15] of 25.5 MFI, a fluorescence intensity [4, 16] of 16 MFI and a fluorescence intensity [4, 17] of 13.5 MFI. For the same binder, the fluorescence intensity [4, 10] was 15 MFI, the fluorescence intensity [4, 11] was 14.5 MFI and the fluorescence intensity [4, 12] was 15.5 MFI. For the same binder, the fluorescence intensity [4, 13] was 18 MFI, the fluorescence intensity [4, 14] was 22.8 MFI and the fluorescence intensity [4, 15] was 87.8 MFI. It also gave a fluorescence intensity [5, 16] of 22 MFI, a fluorescence intensity [5, 17] of 21.5 MFI and a fluorescence intensity [5, 10] of 22.8 MFI. For the same binder, the fluorescence intensity [5, 11] was 22.8 MFI, the fluorescence intensity [5, 12] was 22.5 MFI and the fluorescence intensity [5, 13] was 27.8 MFI. For the same binder, the fluorescence intensity [5, 14] was 29 MFI, the fluorescence intensity [5, 15] was 44.8 MFI and the fluorescence intensity [6, 16] was 20.5 MFI. For the same binder, the fluorescence intensity [6, 17] was 19.5 MFI, the fluorescence intensity [6, 10] was 18.8 MFI and the fluorescence intensity [6, 11] was 18.5 MFI. It also gave a fluorescence intensity [6, 12] of 18 MFI, a fluorescence intensity [6, 13] of 19.5 MFI and a fluorescence intensity [6, 14] of 20.5 MFI. The fluorescence intensity [6, 15] was 35.2 MFI, the fluorescence intensity [7, 16] was 19 MFI and the fluorescence intensity [7, 17] was 17 MFI. For the same binder, the fluorescence intensity [7, 10] was 17 MFI, the fluorescence intensity [7, 11] was 16 MFI and the fluorescence intensity [7, 12] was 18 MFI. It also gave a fluorescence intensity [7, 13] of 16.5 MFI, a fluorescence intensity [7, 14] of 18.5 MFI and a fluorescence intensity [7, 15] of 26.5 MFI. The fluorescence intensity [8, 16] was 16.5 MFI, the fluorescence intensity [8, 17] was 16.5 MFI and the fluorescence intensity [8, 10] was 16 MFI. The fluorescence intensity [8, 11] was 16 MFI, the fluorescence intensity [8, 12] was 16 MFI and the fluorescence intensity [8, 13] was 16.5 MFI. It also gave a fluorescence intensity [8, 14] of 17 MFI, a fluorescence intensity [8, 15] of 27.2 MFI and a fluorescence intensity [9, 16] of 14 MFI. The fluorescence intensity [9, 17] was 14 MFI, the fluorescence intensity [9, 10] was 15.5 MFI and the fluorescence intensity [9, 11] was 14 MFI. The fluorescence intensity [9, 12] was 14 MFI, the fluorescence intensity [9, 13] was 16.5 MFI and the fluorescence intensity [9, 14] was 16.2 MFI. The fluorescence intensity [9, 15] was 24 MFI.
